# Measurements published in PubChem BioAssay AID493014 (National Center for Advancing Translational Sciences (NCATS), 2011).
# Screen size: about 340,000 compounds; about 170 (0.05%) were called active. This list was built around the results that the source calls inconclusive (neither active nor inactive); the mix of calls is not that of the screen. Calls follow the shape of the dose curve; as a rule, active = well fitted inhibition curve with a large enough effect in the signal ratio, with a control signal flat (not every such curve was filed as active); inconclusive = small, poorly fitted or top-dose-only effect, or effect the other way, or a change in a side signal; inactive = flat fitted curve, though single readings scatter; the % refers to the signal ratio. Where the call is inconclusive, the potency comes from a doubtful curve fit.
# Assay: qHTS Assay to Find Inhibitors of Chronic Active B-Cell Receptor Signaling;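 as to activity change, negative = inhibition: plate controls were basal doxycycline-induced cells for no effect and cells given 10 µM MG132 for full effect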
# Settings: ABC-DLBCL IkBa-CBG/CBR reporter, luminescence ratio (green luciferase fused to IkBa over red control in TMD8 lymphoma cells), 4 h; activity change, negative = inhibition: at 46.1 µM (top of the series) unless noted
# Method in brief: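 Cell line TMD8 (human ABC DLBCL), stably expressing tet-inducible CBG68-IkBa fusion and CBR; IMDM/0.5% FBS; cpd up to 46 uM; dox induction, 4 h, 37C/5% CO2; dual luminescence; green/red ratio; MG132 control.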
# Potency is read from the fitted curve at half-maximal effect.
Structure (SMILES),"activity change, negative = inhibition",Potency
O=C(COc1ccc(Cl)cc1Br)Nc1ccccc1N1CCCC1,inconclusive: 13.7%,–
COc1ccc(/C=N/NC(=O)CCNc2n[nH]c(=O)[nH]c2=O)c(OC)c1,–,"inconclusive: 12.6 µM [falling, partial curve]"
O=C(NCCN1CCN(c2ccc([N+](=O)[O-])cc2)CC1)NCc1ccccc1,inactive,–
Cc1ccc(-c2noc(C3CCCN(S(=O)(=O)c4ccc5ccccc5c4)C3)n2)o1 (configuration not stated),inconclusive: -5.49%,–
CCc1noc(C)c1C(=O)Nc1nc2ccc(F)cc2s1,inactive,–
COC(=O)c1nc(-c2ccccc2)oc1N(C)C,inconclusive: 10.8%,–
O=C(Nc1cc(=O)[nH]c2nc(-c3ccccc3)nn12)c1ccccc1Cl,inactive,–
N[C@@H](Cc1ccccc1)c1nnc(SCc2ccccc2F)o1,inconclusive: 10.3%,–
O=C(c1cc(F)cc2c1OCOC2)N1CCN(c2ccc(F)cc2)CC1,inconclusive: -0.192%,–
O=C(NCc1csc(-c2cccs2)n1)Nc1cccc(Cl)c1,inconclusive: 19.6%,–
O=C(CSc1nc(-c2ccccc2)c(-c2ccccc2)[nH]1)NCc1ccco1,inactive,–
S=c1[nH]nc(-c2ccc3ccccc3n2)n1-c1ccccc1,inactive,–
O=c1[nH]c(C2CCN(S(=O)(=O)c3ccccc3F)CC2)nc2c1nnn2Cc1ccc(F)cc1,inconclusive: -1.63%,–
CC(C)N(CCNC(=O)c1ccc(CS(=O)(=O)c2c(Cl)cccc2Cl)o1)Cc1ccccc1,inactive,–
Cc1cc2oc(C(=O)NCc3ccncc3)c(C)c2cc1C,–,"inconclusive: 20.6 µM [falling, partial curve, poor fit]"
CCn1c(O)c(N=NC(=O)Cc2csc(N3CCOCC3)n2)c2ccccc21,inconclusive: 16.1%,–
CCc1cccc(NC(=O)C2CCCN2S(=O)(=O)c2ccccc2C(F)(F)F)c1 (configuration not stated),–,"inconclusive: 29.1 µM [falling, single point]"
COc1ccc(C2C(C(C)=O)=C(O)C(=O)N2Cc2ccccc2)c(OC)c1 (configuration not stated),inconclusive: 3.76%,–
Cc1cc(SCC(=O)N(C)c2c(N)n(Cc3ccccc3)c(=O)[nH]c2=O)nc2ccccc12,–,"inconclusive: 3.55 µM [falling, single point]"
CSc1ncccc1C(=O)Nc1nc(C(C)(C)C)cs1,inconclusive: -17.4%,–
COC(=O)c1ccc(O)c(Sc2cc(C(=O)OC)ccc2O)c1,–,"inconclusive: 16.4 µM [falling, single point]"
CCC(OC(=O)C1=Cc2ccccc2OC1)C(=O)NC1CCCC1 (configuration not stated),inconclusive: 7.55%,–
CC(C)=CC(=O)Nc1nnc(-c2ccccc2)s1,inconclusive: 13.1%,–
COc1ccc(N2CCN(C(=O)Cc3c(C(=O)O)c(C)cn3C)CC2)cc1,inactive,–
COc1ccc(C(CNC(=O)c2ccc(-c3cccc(C(F)(F)F)c3)o2)N2CCOCC2)cc1 (configuration not stated),–,"inconclusive: 18.4 µM [falling, partial curve, poor fit]"
CS(=O)(=O)N(CC(=O)NCC1CCCO1)c1cccc([N+](=O)[O-])c1 (configuration not stated),inconclusive: 1.12%,–

# Rewritten with bars between the fields: 19 of the compounds above.
Structure (SMILES) | activity change, negative = inhibition | Potency
O=C(COc1ccc(Cl)cc1Br)Nc1ccccc1N1CCCC1 | inconclusive: 13.7% | –
COc1ccc(/C=N/NC(=O)CCNc2n[nH]c(=O)[nH]c2=O)c(OC)c1 | – | inconclusive: 12.6 µM [falling, partial curve]
O=C(NCCN1CCN(c2ccc([N+](=O)[O-])cc2)CC1)NCc1ccccc1 | inactive | –
CCc1noc(C)c1C(=O)Nc1nc2ccc(F)cc2s1 | inactive | –
O=C(Nc1cc(=O)[nH]c2nc(-c3ccccc3)nn12)c1ccccc1Cl | inactive | –
N[C@@H](Cc1ccccc1)c1nnc(SCc2ccccc2F)o1 | inconclusive: 10.3% | –
O=C(NCc1csc(-c2cccs2)n1)Nc1cccc(Cl)c1 | inconclusive: 19.6% | –
S=c1[nH]nc(-c2ccc3ccccc3n2)n1-c1ccccc1 | inactive | –
O=c1[nH]c(C2CCN(S(=O)(=O)c3ccccc3F)CC2)nc2c1nnn2Cc1ccc(F)cc1 | inconclusive: -1.63% | –
CC(C)N(CCNC(=O)c1ccc(CS(=O)(=O)c2c(Cl)cccc2Cl)o1)Cc1ccccc1 | inactive | –
CCn1c(O)c(N=NC(=O)Cc2csc(N3CCOCC3)n2)c2ccccc21 | inconclusive: 16.1% | –
CCc1cccc(NC(=O)C2CCCN2S(=O)(=O)c2ccccc2C(F)(F)F)c1 (configuration not stated) | – | inconclusive: 29.1 µM [falling, single point]
Cc1cc(SCC(=O)N(C)c2c(N)n(Cc3ccccc3)c(=O)[nH]c2=O)nc2ccccc12 | – | inconclusive: 3.55 µM [falling, single point]
CSc1ncccc1C(=O)Nc1nc(C(C)(C)C)cs1 | inconclusive: -17.4% | –
COC(=O)c1ccc(O)c(Sc2cc(C(=O)OC)ccc2O)c1 | – | inconclusive: 16.4 µM [falling, single point]
CCC(OC(=O)C1=Cc2ccccc2OC1)C(=O)NC1CCCC1 (configuration not stated) | inconclusive: 7.55% | –
CC(C)=CC(=O)Nc1nnc(-c2ccccc2)s1 | inconclusive: 13.1% | –
COc1ccc(N2CCN(C(=O)Cc3c(C(=O)O)c(C)cn3C)CC2)cc1 | inactive | –
CS(=O)(=O)N(CC(=O)NCC1CCCO1)c1cccc([N+](=O)[O-])c1 (configuration not stated) | inconclusive: 1.12% | –

# (continued)

Structure (SMILES),"activity change, negative = inhibition",Potency
CCOC(=O)C1(Cc2ccc(Cl)cc2)CCN(C(=O)C2CCCO2)CC1 (configuration not stated),inactive,–
O=C(CNC(=O)c1ccc(Cl)cc1Cl)NCC1CCCO1 (configuration not stated),inconclusive: 6.68%,–
CCN(CC(=O)Nc1ccccc1C(F)(F)F)C(=O)c1cccc(N2C(=O)CCC2=O)c1,inconclusive: 12.9%,–
Cn1c(=O)[nH]c(=O)c2c1nc(NCCCn1ccnc1)n2Cc1cccc(Br)c1,inconclusive: -0.781%,–
CCC(C)(C)n1nnnc1C(C(C)C)N1CCSCC1 (configuration not stated),inconclusive: 15.7%,–
Cc1ccccc1C(=O)Nc1ccc(C(=O)N/N=C/c2ccc(O)cc2)cc1,inactive,–
Fc1ccc(COc2cccc3cccnc23)cc1,–,"inconclusive: 35.5 µM [falling, single point]"
CCOc1cc(C(=O)N2CCc3cc(OC)c(OC)cc3C2)ccc1OC(F)F,–,"inconclusive: 3.55 µM [falling, full curve]"
CCC(=O)c1ccc(OCC(=O)OCC(=O)Nc2ccc3c(c2)OCCO3)cc1,inconclusive: 3.31%,–
Cc1ccnc(SCc2cn3c(C)cc(C)nc3n2)n1,inactive,–
O=C(O)CC(NC(=O)c1cccc(F)c1)c1ccc(OC2CCCC2)cc1 (configuration not stated),inconclusive: -2.28%,–
C#CCOCCOCCOCCNc1nc(N2CCN(C(=O)CCCCCCCCCCNC(=O)Cn3cc(C[C@@H](C)O)nn3)CC2)nc(N2CCN(C(=O)CCCCCCCCCCNC(=O)[C@H](CO)n3cc(CCCSC)nn3)CC2)n1,inconclusive: 2.06%,–
COc1ccc2nc(N(CCN(C)C)C(=O)/C=C/c3cccs3)sc2c1,–,"inconclusive: 35.5 µM [falling, single point]"
CCc1cccc(NC(=S)N(CCCN2CCOCC2)C(C)c2cc3cccc(OC)c3o2)c1 (configuration not stated),–,"inconclusive: 22.4 µM [falling, single point]"
CCOc1ccccc1/C=N/n1c(COc2ccccc2)n[nH]c1=S,inactive,–
Cc1ccccc1NC(=O)CN1C(=O)S/C(=C/c2cccnc2)C1=O,inactive,–
CCC(C)Sc1cc(-c2nc3ccc(Cl)cn3c2NC2CCCCC2)ccc1OC (configuration not stated),inconclusive: -1.69%,–
CCOC(=O)c1ccc2c(c1)[nH]c(=S)n2CC,inconclusive: -10.8%,–
COCCCN1C(=O)C(=O)/C(=C(/O)c2ccc(C)cc2)C1c1ccccc1 (configuration not stated),inactive,–
COc1ccc(CN(C(=O)c2ccc(-c3ccccc3)[nH]2)C(C(=O)NC(C)(C)C)c2ccncc2)cc1 (configuration not stated),–,"inconclusive: 20 µM [rising, partial curve, poor fit]"
CC1CCCC(NC(=S)NC(=O)c2ccco2)C1C (configuration not stated),inactive,–
COc1ccc(C(=O)/C=C/c2ccc(N3CCCCC3)c([N+](=O)[O-])c2)cc1,–,"inconclusive: 29.1 µM [falling, single point]"
Cc1ccc(NC(=S)N(CCCN2CCN(C)CC2)Cc2cccs2)cc1C,inconclusive: -5.18%,–
CCn1c(SCC(=O)c2ccccc2)nnc1-c1cccs1,–,"inconclusive: 17.8 µM [falling, single point]"
O=S(=O)(CCc1ccncc1)C1Cc2cccc3cccc1c23 (configuration not stated),inconclusive: -0.871%,–
C/C(=N\NC(=O)c1ccccc1)c1ccc(C)c([N+](=O)[O-])c1,–,"inconclusive: 29.1 µM [falling, single point]"

Structure (SMILES),"activity change, negative = inhibition",Potency
CN(C1CCCC1)C1CCN(C(=O)CNC(=O)/C=C/c2cccc(C(F)(F)F)c2)CC1,inconclusive: 21.6%,–
O=C(OCC(=O)N1CCN(c2ccccc2)CC1)c1ccccc1NCCO,–,"inconclusive: 20.6 µM [falling, single point]"
Cc1c(NC(=S)NC(=O)C(c2ccccc2)c2ccccc2)cccc1C(=O)O,–,"inconclusive: 11.2 µM [falling, partial curve]"
c1ccc(-c2csc(Nc3ncccn3)n2)cc1,–,"inconclusive: 6.51 µM [falling, partial curve]"
COC(=O)CSc1nnc(CNS(=O)(=O)c2ccc(C)cc2)n1C,inconclusive: -1.31%,–
CN(Cc1ccccc1)C(=O)c1[nH]cnc1C(=O)NCC(=O)OCc1ccccc1,inactive,–
C#CCOCCOCCOCCNc1nc(N2CCN(C(=O)CCCCCCCCCCNC(=O)[C@H]([C@@H](C)CC)n3cc(CCCCCN)nn3)CC2)nc(N2CCN(C(=O)CCCCCCCCCCNC(=O)[C@H](CCCCN)n3cc(CCCC(=O)O)nn3)CC2)n1,–,"inconclusive: 23.1 µM [rising, partial curve, poor fit]"
COC(=O)C1=C(C)N=C2SC(C)C(=O)N2C1c1ccc(C(=O)OC)cc1 (configuration not stated),inconclusive: 3.83%,–
COc1cc(-c2nnn(CC(=O)N3CCOCC3)n2)cc(OC)c1OC,inactive,–
CSc1oc(-c2ccc(F)cc2)nc1S(=O)(=O)c1ccccc1,inactive,–
C/C(=N\NC(=O)c1ccccc1C)c1cccnc1,–,"inconclusive: 31.6 µM [rising, single point]"
Cc1ccc(-c2nc(-c3nccc4ccccc34)oc2-c2ccccc2)cc1,–,"inconclusive: 17.8 µM [falling, partial curve, poor fit]"
NC(=O)c1c(Nc2nc3c(F)cccc3s2)sc2c1CCCC2,inconclusive: -6.36%,–
COc1ccc(C(=O)Sc2ccc(C)cc2)cc1OC,–,"inconclusive: 29.1 µM [falling, single point]"
CN(CCO)c1ccc(C=NNc2ccc([N+](=O)[O-])cc2S(=O)(=O)Nc2ccccc2C(=O)O)cc1,inactive,–
CCC(CO)Oc1cc(NCc2ccc(OC)cc2)c2ncn(C(C)C)c2c1 (configuration not stated),inconclusive: -7.05%,–
Cc1cc(C)cc(-n2nnc(C(=O)NCc3ccccc3)c2N)c1,–,"inconclusive: 29.1 µM [falling, single point]"
O=C(CCN1C(=O)CSC1=O)Nc1ccccc1,inconclusive: 0.751%,–
COc1ccc(C(=O)O)cc1N1C(=O)Nc2ccccc2N1O,inactive,–
COc1cc(/C=C(\C#N)C(=O)NC2CCCCC2)ccc1OCc1ccc(C(=O)O)cc1,inconclusive: -17.2%,–
CCc1ccc(NC(=O)c2cc(C)no2)cc1,inconclusive: 7.56%,–
CCN1C(=O)/C(=C\N2CCN(c3ccccc3)CC2)SC1=S,inconclusive: 7.22%,–
CN(C)CCCN(C(=O)c1ccc2c(c1)CCCC2)c1nc2ccc(F)cc2s1,–,"inconclusive: 29.1 µM [falling, single point]"
CCOC(=O)c1[nH]c2c(c1C)C(=O)CC(c1ccc(OC)c(OC)c1)C2 (configuration not stated),inactive,–
Cc1ccn2c(C(=O)NNC(=O)Nc3ccc(Cl)cc3)c(C)nc2c1,–,"inconclusive: 8.91 µM [rising, partial curve, poor fit]"
